US20250249092A1 (TORAY INDUSTRIES, published 2025)
These are yes or no findings as the source states them, for the method shown. Some entries that bind do so weakly or less than the wild type.

T1: CAPRIN-1 protein on the cell membrane surface of cancer cells (UniProt Q14444)
T1 sequence (looked up): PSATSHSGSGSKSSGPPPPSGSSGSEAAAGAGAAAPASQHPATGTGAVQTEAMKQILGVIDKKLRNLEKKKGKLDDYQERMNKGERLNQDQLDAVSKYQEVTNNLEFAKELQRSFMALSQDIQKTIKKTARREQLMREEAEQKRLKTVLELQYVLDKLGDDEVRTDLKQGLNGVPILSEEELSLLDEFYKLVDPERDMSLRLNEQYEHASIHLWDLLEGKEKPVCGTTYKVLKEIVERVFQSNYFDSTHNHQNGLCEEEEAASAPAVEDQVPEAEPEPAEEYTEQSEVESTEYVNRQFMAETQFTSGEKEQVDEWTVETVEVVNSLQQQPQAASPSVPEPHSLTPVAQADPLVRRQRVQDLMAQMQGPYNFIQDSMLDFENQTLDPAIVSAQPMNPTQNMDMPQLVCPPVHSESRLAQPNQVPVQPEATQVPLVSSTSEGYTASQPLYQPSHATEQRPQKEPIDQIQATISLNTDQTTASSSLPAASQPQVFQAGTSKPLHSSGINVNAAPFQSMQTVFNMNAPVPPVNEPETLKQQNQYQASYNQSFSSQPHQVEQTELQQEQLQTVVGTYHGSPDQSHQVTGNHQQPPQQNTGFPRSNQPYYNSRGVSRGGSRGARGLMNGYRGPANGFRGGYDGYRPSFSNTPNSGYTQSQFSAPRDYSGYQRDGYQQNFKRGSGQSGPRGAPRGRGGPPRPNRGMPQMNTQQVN

T2: CAPRIN-1 protein (UniProt Q14444)
T2 sequence (looked up): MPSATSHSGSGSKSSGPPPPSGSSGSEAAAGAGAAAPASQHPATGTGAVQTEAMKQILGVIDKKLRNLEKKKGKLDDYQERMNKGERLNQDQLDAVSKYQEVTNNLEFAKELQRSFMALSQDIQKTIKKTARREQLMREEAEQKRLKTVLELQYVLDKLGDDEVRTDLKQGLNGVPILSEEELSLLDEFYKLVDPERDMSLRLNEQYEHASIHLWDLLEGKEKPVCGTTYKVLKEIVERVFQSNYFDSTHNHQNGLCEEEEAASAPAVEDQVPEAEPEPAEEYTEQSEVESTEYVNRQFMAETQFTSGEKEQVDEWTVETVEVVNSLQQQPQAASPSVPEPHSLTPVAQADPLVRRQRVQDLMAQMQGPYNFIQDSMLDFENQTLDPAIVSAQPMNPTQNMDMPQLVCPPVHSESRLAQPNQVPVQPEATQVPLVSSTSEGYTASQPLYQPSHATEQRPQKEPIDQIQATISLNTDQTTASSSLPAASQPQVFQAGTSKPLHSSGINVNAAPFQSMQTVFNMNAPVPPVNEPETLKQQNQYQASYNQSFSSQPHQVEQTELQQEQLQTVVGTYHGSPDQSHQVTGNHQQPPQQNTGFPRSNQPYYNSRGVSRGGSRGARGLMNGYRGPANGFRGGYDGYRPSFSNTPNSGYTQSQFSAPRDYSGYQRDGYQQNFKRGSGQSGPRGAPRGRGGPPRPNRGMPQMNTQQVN


Columns and labels:
[1] = target: T1, CAPRIN-1 protein on the cell membrane surface of cancer cells; assay: flow cytometry
CAPRIN-1 protein = target: T2, CAPRIN-1 protein; assay: ELISA

binding [1] | binding (CAPRIN-1 protein) | Binder
binds | binds | Conjugate 204 (antibody, V domains shown) VH: EVQLVESGGGLVQPGGSLRLSCAASGFSLSSHSLGWVRQAPGKGLEWIGDIRSGGSAYYANWAKGRFTISRDNSKNTLYLQMNSLRAEDTAVYYCTRTNGPSDLTNRLDLWGQGTLVTVSS VL: QVLTQSPSSLSASVGDRVTINCQASQSLYNNENLAWFQQKPGKVPKRLIYGASTLASGVSSRFSGSGSGTEFTLTISSLQCEDFAIYYCLGEFSCGSADCFAFGGGTKVEIK
binds | binds | Conjugate 207 (antibody, V domains shown) VH: EVQLVESGGGLVQPGGSLRLSCAASGFSLSSHSLGWVRQAPGKGLEWIGDIRSGGSAYYANWAKGRFTISRDNSKNTLYLQMNSLRAEDTAVYFCTRTNGPSDLTNRLDLWGQGTLVTVSS VL: EIVLTQSPSSLSASVGDRVTINCQASQSLYNNENLAWFQQKPGKVPKRLIYGASTLASGVSSRFSGSGSGTEFTLTISNLQPEDFATYYCLGEFSCGSADCFAFGGGTKVEIK
binds | binds | Conjugate 237 (antibody, V domains shown) VH: EVQLVESGGGLVQPGGSLRLSCAASGFSLSSHSLGWVRQAPGKGLEWIGDIRSGGSAYYANWAKGRFTISRDNSKNTLYLQMNSLRAEDTAVYYCTRTNGPSDLTNRLDLWGQGTLVTVSS VL: QVLTQSPSSLSASVGDRVTINCQASQSLYNNENLAWFQQKPGKVPKRLIYGASTLASGVSSRFSGSGSGTEFTLTISSLQCEDFAIYYCLGEFSCGSADCFAFGGGTKVEIK
binds | binds | Conjugate 205 (antibody, V domains shown) VH: EVQLVESGGGLVQPGGSLRLSCAASGFSLSSHSLGWVRQAPGKGLEWIGDIRSGGSAYYANWAKGRFTISRDNSKNTLYLQMNSLRAEDTAVYFCTRTNGPSDLTNRLDLWGQGTLVTVSS VL: QVLTQSPSSLSASVGDRVTINCQASQSLYNNENLAWFQQKPGKVPKRLIYGASTLASGVSSRFSGSGSGTEFTLTISSLQCEDFAIYYCLGEFSCGSADCFAFGGGTKVEIK
binds | binds | Conjugate 206 (antibody, V domains shown) VH: EVQLVESGGGLVQPGGSLRLSCAASGFSLSSHSLGWVRQAPGKGLEWIGDIRSGGSAYYANWAKGRFTISRDNSKNTLYLQMNSLRAEDTAVYYCTRTNGPSDLTNRLDLWGQGTLVTVSS VL: EQVLTQSPSSLSASVGDRVTINCQASQSLYNNENLAWFQQKPGKVPKRLIYGASTLASGVSSRFSGSGSGTEFTLTISNLQPEDFAIYYCLGEFSCGSADCFAFGGGTKVEIK
binds | binds | Conjugate 239 (antibody, V domains shown) VH: EVQLVESGGGLVQPGGSLRLSCAASGFSLSSHSLGWVRQAPGKGLEWIGDIRSGGSAYYANWAKGRFTISRDNSKNTLYLQMNSLRAEDTAVYYCTRTNGPSDLTNRLDLWGQGTLVTVSS VL: EQVLTQSPSSLSASVGDRVTINCQASQSLYNNENLAWFQQKPGKVPKRLIYGASTLASGVSSRFSGSGSGTEFTLTISNLQPEDFAIYYCLGEFSCGSADCFAFGGGTKVEIK
binds | binds | Conjugate 208 (antibody, V domains shown) VH: EVQLVESGGGLVQPGGSLRLSCAASGFSLSSHSLGWVRQAPGKGLEWIGDIRSGGSAYYANWAKGRFTISRDNSKNTLYLQMNSLRAEDTAVYYCTRTNGPSDLTNRLDLWGQGTLVTVSS VL: EIVLTQSPSSLSASVGDRVTINCQASQSLYNNENLAWFQQKPGKVPKRLIYGASTLASGVSSRFSGSGSGTEFTLTISNLQPEDFATYYCLGEFSCGSADCFAFGGGTKVEIK
binds | binds | Conjugate 238 (antibody, V domains shown) VH: EVQLVESGGGLVQPGGSLRLSCAASGFSLSSHSLGWVRQAPGKGLEWIGDIRSGGSAYYANWAKGRFTISRDNSKNTLYLQMNSLRAEDTAVYFCTRTNGPSDLTNRLDLWGQGTLVTVSS VL: QVLTQSPSSLSASVGDRVTINCQASQSLYNNENLAWFQQKPGKVPKRLIYGASTLASGVSSRFSGSGSGTEFTLTISSLQCEDFAIYYCLGEFSCGSADCFAFGGGTKVEIK
binds | binds | Conjugate 209 (antibody, V domains shown) VH: EVQLVESGGGLVQPGGSLRLSCAASGFSLSSHSLGWVRQAPGKGLEWIGDIRSGGSAYYANWAKGRFTISRDNSKNTLYLQMNSLRAEDTAVYFCTRTNGPSDLTNRLDLWGQGTLVTVSS VL: EQVLTQSPSSLSASVGDRVTINCQASQSLYNNENLAWFQQKPGKVPKRLIYGASTLASGVSSRFSGSGSGTEFTLTISNLQPEDFAIYYCLGEFSCGSADCFAFGGGTKVEIK
binds | binds | Conjugate 215 (antibody, V domains shown) VH: DAELVKPGASVKISCKASGYTFTDHSIHWVQQKPEQGLEWIGYISPGNGNIKYNEKFKGKATLTADKSSSTAYMQLNSLTSEDSAVYFCKRSLGRGGPYYFDYWGQGTTVTVSS VL: DIVLTQAAPSLPVTPGESVSISCRSSKSLLHSNGNTYLYWFLQRPGQSPQLLIYRMSNLASGVPDRFSGSGSGTAFTLRISRVEAEDVGVYYCMQHREYPVTFGSGPN
binds | binds | Conjugate 210 (antibody, V domains shown) VH: AVTLDESGGGLQTPGGALSLVCKASGFTFSGYDMLWVRQAPGKGLEWVAGIGSTGGGTDYGAAVKGRATISRDNGQSTVRLQLNNLRAEDTATYYCAKVAGGCNSGYCRDSPGSIDAWGHGTEVIVS VL: AVTQQPASVSANPGETVKITCSGGGSRNYYGWYQQKSPGSVPVTVIYYDDQRPSNIPSRFSGALSGSTSTLTITGVQADDEAVYFCGSADSNTYEGSFGAGTTLTVL
binds | binds | Conjugate 198 (antibody, V domains shown) VH: GPDLVKPGASVKISCKASGYSFTAYYMHWVKQSHGKSLEWIGRVNPNNGGTTYNQKFKGKAILTVDKSSSTAYMELRSLTFEDSAVYYCARRIYYGYFDYWGQGTTVTVSS VL: AFFAVSLGQRATISCKASQSVDYDGDSYMNWYQQKPGQPPKLLIYVASNLESGVPARFSGSGSGTDFTLNIHPVEEEDAATYYCQQSNEDPYTFGGGTKLEIKQ
binds | binds | Conjugate 231 (antibody, V domains shown) VH: GPDLVKPGASVKISCKASGYSFTAYYMHWVKQSHGKSLEWIGRVNPNNGGTTYNQKFKGKAILTVDKSSSTAYMELRSLTFEDSAVYYCARRIYYGYFDYWGQGTTVTVSS VL: AFFAVSLGQRATISCKASQSVDYDGDSYMNWYQQKPGQPPKLLIYVASNLESGVPARFSGSGSGTDFTLNIHPVEEEDAATYYCQQSNEDPYTFGGGTKLEIKQ
binds | binds | Conjugate 214 (antibody, V domains shown) VH: GAELVRSGASVKMSCKASGYSFTDYNMYWVKQTPGQGLEWIGYIYPGNGGTNYNQKFKGKATLTADTSSSTAYMQISSLTSEDSAVYFCARDYDDGGYAMDYWGQGTTVTVSS VL: DIQMTQSPASLSASVGETVTITCRASGNIHNYLTWYQQKQGKSPQLLVYNAKTLADGVPSRFSGSGSGTQYSLKINRLQPEDFGSYYCQHFWNIPWTFGGGTKLNSR
binds | binds | Conjugate 187 (antibody, V domains shown) VH: EVQLHQFGAELVKPGASVKISCKASGYTFTDYNMDWVKQSHGKSLEWIGDINPNYDSTSYNQKFKGKATLTVDKSSSTAYMELRSLTSEDTAVYYCARSRSYDYEGFAYWGQGTLVTVSA VL: DIQMTQSPASLSASVGETVTITCRASGNIHNYLAWYQQKQGKSPQLLVYNAKTLADGVPSRFSGSGSGTQYSLKINSLQPEDFGSYYCQHFWSTLTFGAGTKLELKR
binds | binds | Conjugate 220 (antibody, V domains shown) VH: EVQLHQFGAELVKPGASVKISCKASGYTFTDYNMDWVKQSHGKSLEWIGDINPNYDSTSYNQKFKGKATLTVDKSSSTAYMELRSLTSEDTAVYYCARSRSYDYEGFAYWGQGTLVTVSA VL: DIQMTQSPASLSASVGETVTITCRASGNIHNYLAWYQQKQGKSPQLLVYNAKTLADGVPSRFSGSGSGTQYSLKINSLQPEDFGSYYCQHFWSTLTFGAGTKLELKR
